# Measured values reported in the supplement of paper PMC8256030.
# Values joined by “and” are separate entries in the source; they are usually repeats but may differ in a detail not shown here. Identical values can stand only once. The list shows a part of the results. This data set is noisy: repeats of one test often differ as much as different tests do.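 HEK293T cells were given each compound shortly before transfection with a reporter in which red mCherry is followed by the SARS-CoV-2 frameshift element and then GFP in the −1 frame, so GFP appears only after frameshifting.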
# Columns and labels:
# [1] = system: SARS-CoV-2 -1 PRF reporter mCherry-FSE-GFP(-1); experiment: mCherry (red) intensity as percent of control; higher = higher upstream reporter expression; settings: 10 µM; 24 h; HEK293T
# [2] = system: SARS-CoV-2 -1 PRF reporter mCherry-FSE-GFP(-1); experiment: percent effect, decrease of GFP/mCherry ratio (-1 PRF reporter) relative to controls; higher = stronger frameshift inhibition; settings: 10 µM; 24 h; HEK293T
SMILES,mCherry [1],percent effect [2]
Nc1ccn(C[C@@H](CO)OCP(=O)(O)O)c(=O)n1 [Vistide],105%,-3.96%
O=C1CCCC(=O)C1C(=O)c1ccc(C(F)(F)F)cc1[N+](=O)[O-] [nitisinone],95.9%,-20.6%
CN1CCCN(C(c2ccccc2)c2ccc(Cl)cc2)CC1 (centres undefined) [homochlorcyclizine],51%,-8.12%
C[C@H](CCC(=O)O)[C@H]1CC[C@H]2[C@@H]3[C@H](O)C[C@@H]4C[C@H](O)CC[C@]4(C)[C@H]3CC[C@]12C [chenodeoxycholic acid],119% and 106%,-0.982% and -1.53%
OC[C@@H](O)[C@@H](O)[C@H](O)[C@H](O)CO [Bronchitol],135%,-7.64%
C[C@@H]1C[C@H]2[C@@H]3C[C@H](F)C4=CC(=O)C=C[C@]4(C)[C@@]3(F)[C@@H](O)C[C@]2(C)[C@@]1(O)C(=O)COC(=O)C(C)(C)C [Locorten],105%,-2.8%
CC(C)(C(=O)c1cccnc1)c1cccnc1 [metyrapone],98.5%,2.36%
COC(=O)CCC(=O)CN [Metvixia],112%,-3.16%
CN(CCc1ccccc1)CCc1ccccc1 [demelverine],97.6%,-7.37%
OB1OCc2cc(F)ccc21 [Tavaborole],80.9%,-4.12%
C=C[C@]1(C)C[C@@H](OC(=O)CSCCN(CC)CC)[C@]2(C)[C@H](C)CC[C@]3(CCC(=O)[C@H]32)[C@@H](C)[C@@H]1O [tiamulin],88.9%,-3.97%
FC(F)(Cl)C(F)(F)Cl [cryofluorane],112%,-4.48%
